According to paper PMC6169973:
No constants are given. Whether binding was seen depends on the method and setting.

Amino acid sequences for entries named in this document (tags omitted). A change or cut given only in a name is not applied to a line headed by its entry. Chains listed by the source or under a name are the forms on record and can include a tag or linker. Residues count along the entry.
UniProt Q9HB75, residues 777-883: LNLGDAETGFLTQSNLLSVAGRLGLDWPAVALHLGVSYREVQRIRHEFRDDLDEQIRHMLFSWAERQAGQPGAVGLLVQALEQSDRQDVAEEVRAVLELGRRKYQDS
UniProt P78560: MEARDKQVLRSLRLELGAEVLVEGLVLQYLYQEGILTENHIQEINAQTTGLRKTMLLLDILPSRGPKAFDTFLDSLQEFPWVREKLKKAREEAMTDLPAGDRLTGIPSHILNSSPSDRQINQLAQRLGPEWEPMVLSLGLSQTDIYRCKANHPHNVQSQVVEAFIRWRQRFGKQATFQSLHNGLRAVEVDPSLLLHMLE
RAIDD DD R170H (TLIS variant) (P78560, form named): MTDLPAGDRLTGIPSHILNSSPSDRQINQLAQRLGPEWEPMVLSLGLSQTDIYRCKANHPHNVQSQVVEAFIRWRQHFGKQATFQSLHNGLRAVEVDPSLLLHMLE

Legend:
PIDD DD (777-883) [1] = biological target: PIDD DD (777-883) (UniProt Q9HB75); assay: SEC; RAIDD (full length, DD or mutant) mixed with a molar excess of PIDD DD, 30 min at room temperature; Superdex 200 HR 10/30 in 20 mM Tris-HCl pH 8.0, 150 mM NaCl; fractions on SDS-PAGE, Coomassie; both purified
PIDD DD (777-883) [2] = biological target: PIDD DD (777-883) (UniProt Q9HB75); assay: native gel or EMSA; native PAGE on PhastSystem, 8-25% gradient gels; separately purified proteins pre-incubated 30 min at room temperature; Coomassie; both purified

Substance | binding (PIDD DD (777-883) [1]) | binding (PIDD DD (777-883) [2])
RAIDD DD R170H (TLIS variant) (from UniProt P78560 94-199) (domain or fragment) | no binding | no binding
full-length RAIDD F164C (TLIS variant) (from UniProt P78560 1-199) | – | no binding
full-length RAIDD R170C (TLIS variant) (from UniProt P78560 1-199) | no binding | no binding
full-length RAIDD R170H (TLIS variant) (from UniProt P78560 1-199) | no binding | no binding
